In the DeepSol protein solubility set:

Experiment: soluble on expression in E. coli; label from the status in PepcDB or PDB records

For “MSLSRPRSQYNTKLFNGDLETFVKDSGQVIPLIVESCIRFINLYGLQHQGIFRVSGSQVEVNDIKNSFERGENPLADDQSNHDINSVAGVLKLYFRGLENPLFPKERFNDLISCIRIDNLYERALHIRKLLLTLPRSVLIVMRYLFAFLNHLSQYSDENMMDPYNLAICFGPTLMPVPEIQDQVSCQAHVNEIIKTIIIHHETIFPDAKELDGPVYEKCMAGDDYCDSPYSEHGTLEEVDQDAGTEPHTSEDECEPIEAIAKFDYVGRSARELSFKKGASLLLYHRASEDWWEGRHNGIDGLVPHQYIVVQDMDDTFSDEGHHHHHH”, the “soluble on expression in E. coli” value was “soluble”.
With “MVKETGYYDVLGVKPDASDNELKKAYRKMALKFHPDKNPDGAEQFKQISQAYEVLSDEKKRQIYDQGGEEALQGGGGGGEGFHNPFDVFDMFFGGGGRGGRGERRVKPTVHNLRVTLDTLYKGVTKKLKISRTATCKGCKGLGGNEGSAKECSDCRGRGIKVRVIRMGPMVQQMQSHCDSCNGEGSTFLEKDRCKKCNGKKQVKEDEIIEVGITPGMKDGEKFVFEGKGDEVIGIEKPGDFVVVLDEVEHEKFVRKGDNLIIQHNIDLSEALCGFVRTISTLDGRTIFYRVLPGEVIAHADVKVIHNEGMPMRRASSDKGDLLVQFDVKFPDKINPDAAKKLADLLPGKREEIIDEDAEVVELTELDPQASRRNFAERDDFEGHGGFGGHGHGPQGVQCQQS” the “soluble on expression in E. coli” value was “soluble”.
